Experimental data: the supplement of paper PMC11150407
Structures can show the parent of a compound that is named as a salt. Hit rate of the full screen: of about 2,100 compounds, about 180 (8.6%) showed an effect of 50% or more. Some of the results follow.

These molecules were tested on MOLM1 and UCSD/AML1 (averaged) (assay: cell viability relative to DMSO control (POC); higher = less growth inhibition). Details: 1 µM; 72 h.
Protocol: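 Primary viability screen in the 3q26 EVI1-high AML cell lines MOLM1 and UCSD/AML1 (1.5e3 cells/well, 384-well), compounds at 1 uM for 72 h. ATP CellTiter-Glo read-out given as percent of viable cells over DMSO control (POC), averaged over duplicates. DMSO was the negative control and 5 uM etoposide the positive control. This mapping covers the MicroSource Spectrum and Selleck anticancer libraries (drug names).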

SMILES | cell viability [%]
COC1=CC(=O)C=C(OC)C1=O | 91.5
CC(C)Cc1ccc(C(C)C(=O)O)cc1 (stereo unspecified) | 103
O=c1c(O)c(-c2ccc(O)c(O)c2)oc2cc(O)cc(O)c12 [Quercetin (Sophoretin)] | 84
O=c1c(O)c(-c2ccc(O)c(O)c2)oc2cc(O)cc(O)c12 | 102
O=C(O)C1(C(=O)O)CCC1.[NH2-].[NH2-].[Pt+2] | 100
O=C(O)C1(C(=O)O)CCC1.[NH2-].[NH2-].[Pt+2] [Carboplatin] | 87.5
CC1=C(C/C=C(\C)CCC[C@H](C)CCC[C@H](C)CCCC(C)C)C(=O)c2ccccc2C1=O | 85.4
COc1cc(OC)c(-c2c(OC)cc(OC)cc2OC)c(OC)c1 | 104
C=C(c1ccc(C(=O)O)cc1)c1cc2c(cc1C)C(C)(C)CCC2(C)C [Bexarotene] | 78.1
C#C[C@]1(O)CC[C@H]2[C@@H]3CCC4=C(CCC(=O)C4)[C@H]3CC[C@@]21C | 95.5
CCOC(=O)[N-]c1c[n+](N2CCOCC2)no1 | 90.5
CC[N+](CC)(CC)CCOc1cccc(OCC[N+](CC)(CC)CC)c1OCC[N+](CC)(CC)CC | 101
CC(C)(C)NCC(O)c1cc(O)cc(O)c1 (stereo unspecified) | 99.1
COc1ccc2c(c1)O[C@@H]1COc3cc(OC)c(OC)cc3[C@@H]1C2=O | 102
CCN(CCCOc1ccc2c(Nc3cc(CC(=O)Nc4cccc(F)c4)[nH]n3)ncnc2c1)CCOP(=O)(O)O [Barasertib (AZD1152-HQPA)] | 74.2
CN[C@@H]1[C@H](O[C@H]2[C@H](O[C@H]3[C@H](O)[C@@H](O)[C@H](NC(=N)N)[C@@H](O)[C@@H]3NC(=N)N)O[C@@H](C)[C@]2(O)CO)O[C@@H](CO)[C@H](O)[C@H]1O | 109
NCc1ccc(S(N)(=O)=O)cc1 | 98.8
CCc1oc2ccccc2c1C(=O)c1cc(Br)c(O)c(Br)c1 | 94
O=C(O)c1cccnc1C(=O)O | 94.1
CCOc1ccc(NC(C)=O)cc1 | 92.7
CN1CCC[C@@H]1CCO[C@](C)(c1ccccc1)c1ccc(Cl)cc1 | 97.9
CN1CCN(c2nc(C3=C(c4c[nH]c5ccccc45)C(=O)NC3=O)c3ccccc3n2)CC1 [Sotrastaurin (AEB071)] | 60.2
C/C=C1\[C@H]2C=C(C)C[C@]1(N)c1ccc(=O)[nH]c1C2 | 78.7
C[N+](C)(C)CCO.[Cl-] | 94.5

Copied from the list:
C=C(c1ccc(C(=O)O)cc1)c1cc2c(cc1C)C(C)(C)CCC2(C)C [Bexarotene] | cell viability [%]: 78.1
CC[N+](CC)(CC)CCOc1cccc(OCC[N+](CC)(CC)CC)c1OCC[N+](CC)(CC)CC | cell viability [%]: 101
O=C(O)C1(C(=O)O)CCC1.[NH2-].[NH2-].[Pt+2] | cell viability [%]: 100
O=c1c(O)c(-c2ccc(O)c(O)c2)oc2cc(O)cc(O)c12 [Quercetin (Sophoretin)] | cell viability [%]: 84

Exported tab-delimited: entries from further up
SMILES	cell viability [%]
COc1cc(OC)c(-c2c(OC)cc(OC)cc2OC)c(OC)c1	104
C=C(c1ccc(C(=O)O)cc1)c1cc2c(cc1C)C(C)(C)CCC2(C)C [Bexarotene]	78.1
C#C[C@]1(O)CC[C@H]2[C@@H]3CCC4=C(CCC(=O)C4)[C@H]3CC[C@@]21C	95.5

(further entries)

SMILES | cell viability [%]
CN1CCC(OC(c2ccccc2)c2ccccc2)CC1 | 108
O=C(Oc1cccc2cccnc12)c1ccccc1 | 107
COC(=O)c1ccc2c(C(=Nc3ccc(N(C)C(=O)CN4CCN(C)CC4)cc3)c3ccccc3)c(O)[nH]c2c1 [BIBF1120 (Vargatef)] | 11.9
Cn1cc(-c2ccc3nnc(Sc4ccc5ncccc5c4)n3n2)cn1 | 82.3
Clc1ccc(Nc2nnc(Cc3ccncc3)c3ccccc23)cc1 [Vatalanib dihydrochloride (PTK787)] | 44.6
Fc1ccc([C@@H]2CCNC[C@H]2COc2ccc3c(c2)OCO3)cc1 | 81
CN(C/C=C/C#CC(C)(C)C)Cc1cccc2ccccc12 | 103
O=C(NC1CCCCC1)NC1CCCCC1 | 120
C=C1CCC2C(CC2(C)C)C(=O)CCC1O (stereo unspecified) | 104
NC(CO)C(=O)NNCc1ccc(O)c(O)c1O (stereo unspecified) | 101
C[C@H]1COc2c(N3CCN(C)CC3)c(F)cc3c(=O)c(C(=O)O)cn1c23 | 85.9
CN(C)CCCN1c2ccccc2CCc2ccccc21 | 102
NCC[C@H](O)C(=O)N[C@@H]1C[C@H](N)[C@@H](O[C@H]2O[C@H](CN)[C@@H](O)[C@H](O)[C@H]2O)[C@H](O)[C@H]1O[C@H]1O[C@H](CO)[C@@H](O)[C@H](N)[C@H]1O | 95.1
COc1cc(/C=C/C(=O)CC(=O)/C=C/c2ccc(O)c(OC)c2)ccc1O | 101
Cc1cc2nc3c(=O)[nH]c(=O)nc-3n(CC(O)C(O)C(O)COP(=O)(O)O)c2cc1C (stereo unspecified) | 83.8
CC(C)=CCOc1cc2oc(=O)ccc2cc1O | 98
Cc1cc2c(F)c(Oc3ncnn4cc(OC[C@@H](C)O)c(C)c34)ccc2[nH]1 | 89.6
CC(=O)OCC[N+](C)(C)C | 102
OCCN1C[C@H](O)[C@@H](O)[C@H](O)[C@H]1CO | 97.2
CC(=O)O[C@@H]1CC2C(C)(C)C(=O)CC[C@]2(C)C2CC[C@]3(C)C(=CC(=O)O[C@H]3c3ccoc3)[C@@]21C (stereo partly specified) | 110
CC(C)C(=O)Nc1ccc([N+](=O)[O-])c(C(F)(F)F)c1 [Flutamide (Eulexin)] | 83
CC(C)C(=O)Nc1ccc([N+](=O)[O-])c(C(F)(F)F)c1 | 100
Cn1cnc([N+](=O)[O-])c1Sc1ncnc2[nH]cnc12 [Azathioprine (Azasan, Imuran)] | 98.3
Cn1cnc([N+](=O)[O-])c1Sc1ncnc2[nH]cnc12 | 96.6

SMILES | cell viability [%]
O=C(O)CCCC[C@@H]1SC[C@@H]2NC(=O)N[C@@H]21 | 96.8
CC1COc2c(N3CCN(C)CC3)c(F)cc3c(=O)c(C(=O)O)cn1c23 (stereo unspecified) | 103
C[C@H](CCC(=O)O)[C@H]1CC[C@H]2[C@@H]3CC[C@@H]4C[C@H](O)CC[C@]4(C)[C@H]3CC[C@]12C | 87.5
CC(C)NCC(O)c1cc(O)cc(O)c1 (stereo unspecified) | 95.8
O=C(O)CN(CCN(CC(=O)O)CC(=O)O)CCN(CC(=O)O)CC(=O)O | 88.8
COc1ccc(-c2cc(=O)c3c(OC)c(OC)c(OC)cc3o2)cc1OC | 105
O=C(/C=C/C=C/c1ccc2c(c1)OCO2)N1CCCCC1 | 99.9
CCC(=O)OCC(=O)[C@@]1(OC(=O)CC)[C@@H](C)C[C@H]2[C@@H]3CCC4=CC(=O)C=C[C@]4(C)[C@@]3(Cl)[C@@H](O)C[C@@]21C | 69.6
COc1ccc(-c2cc(=O)c3c(O)cc(OC)cc3o2)cc1 | 110
CCN(CC)Cc1cc(Nc2ccnc3cc(Cl)ccc23)ccc1O | 104
CC(C)=CCC/C(C)=C/CC/C(C)=C/CC/C(C)=C/CO | 95.1
CC(=O)OCC1=C(C(=O)O)N2C(=O)[C@@H](NC(=O)Cc3cccs3)[C@H]2SC1 | 108
CC(C)(C)NCC(O)c1ccc(O)c(CO)c1 (racemic) | 93.2
C=CCn1c(=O)c2cnc(Nc3ccc(N4CCN(C)CC4)cc3)nc2n1-c1cccc(C(C)(C)O)n1 | 19.2
CCN(CC)CCNC(=O)COc1ccc(OC)cc1 | 97.5
C=CCCCCCCCCC(=O)O | 102
CC1(C)S[C@@H]2[C@H](NC(=O)Cc3ccccc3)C(=O)N2[C@H]1C(=O)O | 106
CCCCc1nc(Cl)c(CO)n1Cc1ccc(-c2ccccc2-c2nnn[nH]2)cc1 | 91.4
COc1c(O)cc2oc3cc(O)c(CC=C(C)C)c(O)c3c(=O)c2c1CC=C(C)C [alpha-MANGOSTIN] | 95.2
CC1(C)C[C@@H]2C(=O)CC[C@H]3O[C@]3(C)CC[C@H]21 | 104
O=C1CCC(N2C(=O)c3ccccc3C2=O)C(=O)N1 (stereo unspecified) | 104
O=C1CCC(N2C(=O)c3ccccc3C2=O)C(=O)N1 (stereo unspecified) [Thalidomide] | 104
C[n+]1ccccc1C=NO | 99.8
CC[n+]1c(-c2ccccc2)c2cc(N)ccc2c2ccc(N)cc21 | 93

SMILES | cell viability [%]
CNCCCN1c2ccccc2CCc2ccccc21 | 100
O=C(O)[C@]1(O)C[C@@H](O)[C@@H](O)[C@H](O)C1 | 97.5
CCC(C)n1ncn(-c2ccc(N3CCN(c4ccc(OCC5COC(Cn6cncn6)(c6ccc(Cl)cc6Cl)O5)cc4)CC3)cc2)c1=O (stereo unspecified) | 84.1
CCC(C)n1ncn(-c2ccc(N3CCN(c4ccc(OCC5COC(Cn6cncn6)(c6ccc(Cl)cc6Cl)O5)cc4)CC3)cc2)c1=O (stereo unspecified) [Itraconazole (Sporanox)] | 87.1
Cc1cccc(Nc2ccccc2C(=O)O)c1C | 104
CC(N)C(=O)OC(C)(C)Cc1ccc(Cl)cc1 (stereo unspecified) | 99
C=CCSCC=C | 97.3
NNC(=O)c1ccncc1 | 121
CCC(=O)OCC(=O)[C@@]1(OC(=O)CC)[C@@H](C)C[C@H]2[C@@H]3CCC4=CC(=O)C=C[C@]4(C)[C@@]3(F)[C@@H](O)C[C@@]21C | 66
CC1(C)O[C@@H]2C[C@H]3[C@@H]4C[C@H](F)C5=CC(=O)CC[C@]5(C)[C@H]4[C@@H](O)C[C@]3(C)[C@]2(C(=O)CO)O1 | 70.7
C[C@H]1C[C@H]2[C@@H]3CCC4=CC(=O)C=C[C@]4(C)[C@H]3C(=O)C[C@]2(C)[C@@]1(O)C(=O)CO [Betapar (Meprednisone)] | 59
CCCCc1oc2ccccc2c1C(=O)c1cc(I)c(OCCN(CC)CC)c(I)c1 | 102
O=C(O)c1cccnc1 | 95
Cc1cccc(N(C)C(=S)Oc2ccc3ccccc3c2)c1 | 100
C=CCNC1=C2C[C@@H](C)C[C@H](OC)[C@H](O)[C@@H](C)/C=C(\C)[C@H](OC(N)=O)[C@@H](OC)/C=C\C=C(/C)C(=O)NC(=CC1=O)C2=O [17-AAG (Tanespimycin)] | 29.1
CN1CCN(c2ccc3nc(-c4c(N)c5c(F)cccc5[nH]c4=O)[nH]c3c2)CC1 [Dovitinib (TKI-258)] | 26.7
CCN1CCCC1CNC(=O)c1cc(S(N)(=O)=O)ccc1OC (stereo unspecified) | 90.8
O=C(O)c1cc2cc(F)ccc2[nH]1 | 119
CC(C)=CCc1c(O)cc2oc(C)cc(=O)c2c1O | 94.1
CC12CC3CC(C)(C1)CC(N)(C3)C2 | 100
COc1ccc(-c2cc(=O)c3c(OC)c(OC)c(OC)c(OC)c3o2)cc1 | 89.9
Cc1cccc(-c2nn3c(c2-c2ccnc4ccc(C(N)=O)cc24)CCC3)n1 | 96.2
Nc1ccc(S(=O)(=O)O)cc1.Nc1ccc(S(=O)(=O)O)cc1.[Zn] | 99.2
C#C[C@]1(O)CC[C@H]2[C@@H]3CCC4=Cc5oncc5C[C@]4(C)[C@H]3CC[C@@]21C | 98.2
